Laboratory results taken from publication PMC12221994.
Where two headings read alike, the source gives them in different places. Construct, isoform or probe ends are uncertain for at least one entry. For part of these data: Negatives hold for the conditions tested. For part of these data: At least one verdict was read from the data and is not stated in words by the source.

Amino acid sequences for entries named in this document (tags omitted). A change or cut given only in a name is not applied to a line headed by its entry.
UniProt Q15554: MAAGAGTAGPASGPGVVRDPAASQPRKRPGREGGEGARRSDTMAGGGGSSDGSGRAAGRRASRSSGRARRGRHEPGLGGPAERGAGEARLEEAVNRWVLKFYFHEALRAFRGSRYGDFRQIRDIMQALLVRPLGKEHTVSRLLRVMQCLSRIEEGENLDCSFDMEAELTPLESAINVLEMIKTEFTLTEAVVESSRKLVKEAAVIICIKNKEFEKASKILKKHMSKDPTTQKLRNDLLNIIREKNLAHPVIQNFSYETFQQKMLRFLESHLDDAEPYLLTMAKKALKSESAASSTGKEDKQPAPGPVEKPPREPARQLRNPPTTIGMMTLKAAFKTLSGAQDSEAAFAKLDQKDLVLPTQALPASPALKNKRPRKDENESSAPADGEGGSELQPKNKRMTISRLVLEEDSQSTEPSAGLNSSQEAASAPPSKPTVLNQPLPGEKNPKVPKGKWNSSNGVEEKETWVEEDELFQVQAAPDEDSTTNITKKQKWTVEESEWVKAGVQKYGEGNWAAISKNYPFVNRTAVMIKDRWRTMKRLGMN

Experiments:
TRF2 (human) = TRF2 (human) (UniProt Q15554); test: EMSA; settings: 2, 15 or 40 nM TRF2, 1 nM DNA; cryo-EM: 40 mM HEPES pH 7.6, 100 mM NaCl, 3 mM MgCl2, 4 C; recombinant protein; protein details: dual strep; label: 32P 5' end (telomeric end)
[1] = system: KU70/80 + DNA-PKcs + RAP1 + TRF2 RBM mutant (L330R); test: DNase I footprinting; settings: read-out: 10-bp footprint, RBM required; Footprinting: 25 mM HEPES pH 7.6, 80 mM KCl, 1.5 mM CaCl2, 1.5 mM MgCl2, 5% glycerol, 50 ug/ml BSA, 2 mM DTT, ice then 37 C (EMSA same buffer, 37 C); recombinant protein; protein details: FLAG (KU70 N-terminal),dual strep,dual strep; label: 32P 5' end (telomeric end)
[2] = system: KU70/80 + DNA-PKcs + RAP1 + TRF2(deltaBasic); test: DNase I footprinting; settings: read-out: 10-bp footprint, basic domain not required; Footprinting: 25 mM HEPES pH 7.6, 80 mM KCl, 1.5 mM CaCl2, 1.5 mM MgCl2, 5% glycerol, 50 ug/ml BSA, 2 mM DTT, ice then 37 C (EMSA same buffer, 37 C); recombinant protein; protein details: FLAG (KU70 N-terminal),dual strep,dual strep; label: 32P 5' end (telomeric end)
[3] = system: KU70/80 + DNA-PKcs + RAP1 + TRF2(deltaMdeltaB); test: DNase I footprinting; settings: read-out: 10-bp footprint; Footprinting: 25 mM HEPES pH 7.6, 80 mM KCl, 1.5 mM CaCl2, 1.5 mM MgCl2, 5% glycerol, 50 ug/ml BSA, 2 mM DTT, ice then 37 C (EMSA same buffer, 37 C); recombinant protein; protein details: FLAG (KU70 N-terminal),dual strep,dual strep; label: 32P 5' end (telomeric end)
[4] = system: KU70/80 + DNA-PKcs + RAP1 + TRF2(deltaMyb); test: DNase I footprinting; settings: read-out: 10-bp footprint, TRF2 Myb required; Footprinting: 25 mM HEPES pH 7.6, 80 mM KCl, 1.5 mM CaCl2, 1.5 mM MgCl2, 5% glycerol, 50 ug/ml BSA, 2 mM DTT, ice then 37 C (EMSA same buffer, 37 C); recombinant protein; protein details: FLAG (KU70 N-terminal),dual strep,dual strep; label: 32P 5' end (telomeric end)
[5] = system: KU70/80 + DNA-PKcs + RAP1(deltaRCT) + TRF2; test: DNase I footprinting; settings: read-out: 10-bp footprint, RCT required; Footprinting: 25 mM HEPES pH 7.6, 80 mM KCl, 1.5 mM CaCl2, 1.5 mM MgCl2, 5% glycerol, 50 ug/ml BSA, 2 mM DTT, ice then 37 C (EMSA same buffer, 37 C); recombinant protein; protein details: FLAG (KU70 N-terminal),dual strep,dual strep; label: 32P 5' end (telomeric end)
[6] = system: KU70/80 + DNA-PKcs + RAP1; test: DNase I footprinting; settings: read-out: 10-bp footprint absent without TRF2; Footprinting: 25 mM HEPES pH 7.6, 80 mM KCl, 1.5 mM CaCl2, 1.5 mM MgCl2, 5% glycerol, 50 ug/ml BSA, 2 mM DTT, ice then 37 C (EMSA same buffer, 37 C); recombinant protein; protein details: FLAG (KU70 N-terminal),dual strep; label: 32P 5' end (telomeric end)
[7] = system: KU70/80 + DNA-PKcs + TRF2 + RAP1(R133E); test: DNase I footprinting; settings: read-out: 10-bp footprint blocked; Footprinting: 25 mM HEPES pH 7.6, 80 mM KCl, 1.5 mM CaCl2, 1.5 mM MgCl2, 5% glycerol, 50 ug/ml BSA, 2 mM DTT, ice then 37 C (EMSA same buffer, 37 C); recombinant protein; protein details: FLAG (KU70 N-terminal),dual strep,dual strep; label: 32P 5' end (telomeric end)
[8] = system: KU70/80 + DNA-PKcs + TRF2 + RAP1(deltaBRCT); test: DNase I footprinting; settings: read-out: 10-bp footprint; Footprinting: 25 mM HEPES pH 7.6, 80 mM KCl, 1.5 mM CaCl2, 1.5 mM MgCl2, 5% glycerol, 50 ug/ml BSA, 2 mM DTT, ice then 37 C (EMSA same buffer, 37 C); recombinant protein; protein details: FLAG (KU70 N-terminal),dual strep,dual strep; label: 32P 5' end (telomeric end)
[9] = system: KU70/80 + DNA-PKcs + TRF2 + RAP1; test: DNase I footprinting; settings: Footprinting: 25 mM HEPES pH 7.6, 80 mM KCl, 1.5 mM CaCl2, 1.5 mM MgCl2, 5% glycerol, 50 ug/ml BSA, 2 mM DTT, ice then 37 C (EMSA same buffer, 37 C), recombinant protein, protein details: FLAG (KU70 N-terminal),dual strep,dual strep
[10] = system: KU70/80 + DNA-PKcs + TRF2; test: DNase I footprinting; settings: read-out: 10-bp footprint absent without RAP1 (DNA-PK still bound); Footprinting: 25 mM HEPES pH 7.6, 80 mM KCl, 1.5 mM CaCl2, 1.5 mM MgCl2, 5% glycerol, 50 ug/ml BSA, 2 mM DTT, ice then 37 C (EMSA same buffer, 37 C); recombinant protein; protein details: FLAG (KU70 N-terminal),dual strep; label: 32P 5' end (telomeric end)
[11] = system: KU70/80 + DNA-PKcs + Teb1 DBD; test: DNase I footprinting; settings: read-out: 10-bp footprint, Teb1 alone gives none; Footprinting: 25 mM HEPES pH 7.6, 80 mM KCl, 1.5 mM CaCl2, 1.5 mM MgCl2, 5% glycerol, 50 ug/ml BSA, 2 mM DTT, ice then 37 C (EMSA same buffer, 37 C); recombinant protein; protein details: FLAG (KU70 N-terminal); label: 32P 5' end (telomeric end)
[12] = system: KU70/80 + DNA-PKcs + shelterin (TRF1, TRF2, RAP1, TIN2, POT1, TPP1); test: DNase I footprinting; settings: 10-bp footprint next to DNA-PK; Footprinting: 25 mM HEPES pH 7.6, 80 mM KCl, 1.5 mM CaCl2, 1.5 mM MgCl2, 5% glycerol, 50 ug/ml BSA, 2 mM DTT, ice then 37 C (EMSA same buffer, 37 C); recombinant protein; protein details: FLAG (KU70 N-terminal); label: 32P 5' end (telomeric end)
KU70/80 + DNA-PKcs = test: DNase I footprinting; settings: 32 bp protected from the end, 50 nM KU, 30 nM DNA-PKcs, 2 nM DNA; Footprinting: 25 mM HEPES pH 7.6, 80 mM KCl, 1.5 mM CaCl2, 1.5 mM MgCl2, 5% glycerol, 50 ug/ml BSA, 2 mM DTT, ice then 37 C (EMSA same buffer, 37 C); recombinant protein; protein details: FLAG (KU70 N-terminal); label: 32P 5' end (telomeric end)

Sequence	binding result (TRF2 (human))	binding result [1]	binding result [2]	binding result [3]	binding result [4]	binding result [5]	binding result [6]	binding result [7]	binding result [8]	binding result ([9]; 10-bp footprint next to DNA-PK, 5 nM TRF2-RAP1, also at 250 nM each, label: 32P 5' end (telomeric end))	binding result [10]	binding result [11]	binding result [12]	binding result (KU70/80 + DNA-PKcs)	binding result ([9]; read-out: 10-bp footprint absent on non-telomeric DNA, label: 32P 5' end)
CGGTACCCGGGGATCCTCTAGAGTCGACGAAGACTTAGGGTTAGGGTTAGGGTTAGGGTTAGGGTTAGGGTTAGGGTTAGGGTTAGGGTTAGGGTTAGGGTTAGGGTTAGGGTTAGGGTTAGGGTTAGGGTTAGGGTTAGGGTTAGGGTTAGGGTTAGGGTTAGGGTTAGGGTTAGGGTTAGGGTTAGGGTTAGGGTTAGGGTTAGGGTTAGGGTTAGGGTTAGGGTTAGGGTTAGGGTTAGGGTTAGGGTTAGGGTTAGGGTTAGGGTTAGGGTTAGGGTTAGGGTTAGGGTTAGGGTTAGGGTTAGGGTTAGGGTTAGGGTTAGGGTTAGGGTTAGGGTTAGGGTTAGGGTTAGGGTTAGGGTTAGGGTTAGGGTTAGGGTTAGGG (double strand) [PE1 telomeric template]	binds	no binding	binds	no binding	no binding	no binding	no binding	no binding	no binding	binds	no binding	no binding	binds	binds	–
CGGTACCCGGGGATCCTCTAGAGTCGACGAAGACCACCAGCTAGTACAACCACATACTTTATGGAGAAATTTCAAAACGCAAAGAAGAACGAAGATAAACAAATTGCCAAGTTTGAAAGCATGATGAATGCAAGAGTACATACGTTCAGTACCGATGAGAAGAAATATGTGCCGATAATCACAAACGAATTAGAAAGCTTTTCAAATCTTTGGGTTAAAAAGAGGTACATACCTGAAGATGACTTAAAACGGGCTTTGCATGAGATCAAAATCCTTCGGTTGGGCAAACTTTTTGCTAAAATTCGCCCACCTAAATTTCAAGAGCCTGAATACGCCAACTGGGCCACCGTAGGCCTCATTAGCCACAAATCGGACATCAAATTTAC (double strand) [PE2 non-telomeric template]	–	–	–	–	–	–	–	–	–	–	–	–	–	–	no binding
